Test results as given in the supplement of paper PMC9233669.
This sample is rich in variants without activity.

Key:
[1] = test system: biotinyl-Phe-oxazolone; assay: self-aminoacylation, catalytic enhancement (BFO) (fold over background); higher = more active; k-Seq, kA / k0A0; sequences stand for … in GGGAAUGGAUCCACAUCUACGAAUUC…UUCACUGCAGACUUGACGAAGCUG
In short: (§1)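 Mutagenized RNA pools with a 21-nt variable region (0.43 μM) were reacted with each biotinyl-aminoacyl-oxazolone at 2–1250 μM for 90 minutes at room temperature, in 50 μL HEPES/NaCl/KCl/MgCl2/CaCl2 buffer containing 5% acetonitrile at pH 6.9–7.0. RNA captured on streptavidin was quantified by triplicate qPCR and by Illumina sequencing. The fraction reacted for each sequence was fit to a pseudo-first-order model with bootstrapping, and catalytic enhancement is the median kA divided by the uncatalyzed rate, taken as the low-activity peak of a bimodal Gaussian fit.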

[2] = test system: biotinyl-Val-oxazolone; assay: self-aminoacylation, catalytic enhancement (BVO) (fold over background); higher = more active; k-Seq, kA / k0A0; sequences stand for … in GGGAAUGGAUCCACAUCUACGAAUUC…UUCACUGCAGACUUGACGAAGCUG
In short: as §1

[3] = test system: biotinyl-Leu-oxazolone; assay: self-aminoacylation, catalytic enhancement (BLO) (fold over background); higher = more active; k-Seq, kA / k0A0; sequences stand for … in GGGAAUGGAUCCACAUCUACGAAUUC…UUCACUGCAGACUUGACGAAGCUG
In short: as §1

[4] = test system: biotinyl-Trp-oxazolone; assay: self-aminoacylation, catalytic enhancement (BWO) (fold over background); higher = more active; k-Seq, kA / k0A0; sequences stand for … in GGGAAUGGAUCCACAUCUACGAAUUC…UUCACUGCAGACUUGACGAAGCUG
In short: as §1

[5] = test system: biotinyl-Ile-oxazolone; assay: self-aminoacylation, catalytic enhancement (BIO) (fold over background); higher = more active; k-Seq, kA / k0A0; sequences stand for … in GGGAAUGGAUCCACAUCUACGAAUUC…UUCACUGCAGACUUGACGAAGCUG
In short: as §1

[6] = test system: biotinyl-Met-oxazolone; assay: self-aminoacylation, catalytic enhancement (BMO) (fold over background); higher = more active; k-Seq, kA / k0A0; sequences stand for … in GGGAAUGGAUCCACAUCUACGAAUUC…UUCACUGCAGACUUGACGAAGCUG
In short: as §1

Sequence | self-aminoacylation [1] | self-aminoacylation [2] | self-aminoacylation [3] | self-aminoacylation [4] | self-aminoacylation [5] | self-aminoacylation [6]
AGUCACCUAUGUCAUCGGGUG [Fam2.2 aminoacylation ribozyme variant] | 31.8 | 3.19 | 4.74 | 4.85 | 3.74 | 4.37
AUAACCCUGGUCAUAGAGUGA [Fam2.1 aminoacylation ribozyme variant] | 49 | 3.61 | 8.65 | 9.78 | 3.62 | 8.34
AUAACCCUGGUCAUCUAGUGA [Fam2.1 aminoacylation ribozyme variant] | 45.7 | 4.77 | 9.2 | 10.1 | 4.52 | 8.88
AUACACCUAGGUCAUCAGGUG [Fam2.2 aminoacylation ribozyme variant] | 1.39 | 1.32 | 1.02 | 1.59 | 1.19 | 1.12
AUACUUCAAACCAUCGGUCUG [Fam1A.1 aminoacylation ribozyme variant] | 0.887 | 0.917 | 0.902 | 1.07 | 1.1 | 0.774
AUCACCCUGGUCAUCGACUGA [Fam2.1 aminoacylation ribozyme variant] | 1.67 | 1.27 | 0.995 | 0.557 | 0.879 | 1.33
AUCCACCUAGGUCAUCGGGGG [Fam2.2 aminoacylation ribozyme variant] | 2.86 | 2.77 | 5.3 | 4.13 | 4.14 | 3.97
AUCCCCCUAGGUCAUCGGGUG [Fam2.2 aminoacylation ribozyme variant] | 132 | 8.74 | 17.6 | 12.6 | 8.62 | 13.3
AUGACCCUGGUCACCGAGUGA [Fam2.1 aminoacylation ribozyme variant] | 45.5 | 5.03 | 11.7 | 9.23 | 3.68 | 10.5
AUGCACCUAGGUCAUCAGGUG [Fam2.2 aminoacylation ribozyme variant] | 1.15 | 1.49 | 1.57 | 1.19 | 1.13 | 1.39
AUGCACCUGGGUCAUCGGGUG [Fam2.2 aminoacylation ribozyme variant] | 21.2 | 3.8 | 3.18 | 3.63 | 3.37 | 4.33
AUGUUUGCUAAUAGGCGCAAG [Fam3.1 aminoacylation ribozyme variant] | 1.08 | 0.869 | 0.692 | 1.72 | 1.17 | 0.784
AUGUUUGCUAAUAUUCGCAAG [Fam3.1 aminoacylation ribozyme variant] | 1.15 | 1.21 | 1.16 | 1.6 | 1.47 | 1.38
AUGUUUGCUAUUAGUCGCAAG [Fam3.1 aminoacylation ribozyme variant] | 1.53 | 1.63 | 1.33 | 1.91 | 1.42 | 1.39
AUUAACCUAGGUCAUAGGGUG [Fam2.2 aminoacylation ribozyme variant] | 1.19 | 1.36 | 1.74 | 2.08 | 1.29 | 1.41
AUUAACCUAGGUCGUCGGGUG [Fam2.2 aminoacylation ribozyme variant] | 3.08 | 1.42 | 2.01 | 1.42 | 1.38 | 1.7
AUUAACGUGGUCAUCGAGUGA [Fam2.1 aminoacylation ribozyme variant] | 18.6 | 2.75 | 4.72 | 6.07 | 2.95 | 4.88
AUUACACUGGUCAUCGAGUAA [Fam2.1 aminoacylation ribozyme variant] | 0.934 | 1.39 | 1.42 | 1.75 | 1.41 | 1.33
AUUACCACGGUCAUCGAGUGA [Fam2.1 aminoacylation ribozyme variant] | 38.3 | 3.66 | 5.96 | 8.11 | 3.48 | 6.51
AUUACCAUGGUCAUCGAAUGA [Fam2.1 aminoacylation ribozyme variant] | 0.809 | 1.08 | 1.17 | 1.23 | 1.23 | 1.06
AUUACCAUGGUGAUCGAGUGA [Fam2.1 aminoacylation ribozyme variant] | 14.7 | 2.4 | 4.04 | 4.4 | 2.33 | 3.59
AUUACCCAGGUCAUCGAGCGA [Fam2.1 aminoacylation ribozyme variant] | 1.14 | 1.79 | 1.73 | 1.89 | 1.53 | 1.92
AUUACCCCUGUCAUCGAGUGA [Fam2.1 aminoacylation ribozyme variant] | 28.2 | 3.14 | 5.42 | 7.28 | 3.62 | 4.96
AUUACCCGGGUCCUCGAGUGA [Fam2.1 aminoacylation ribozyme variant] | 47.4 | 3.84 | 7.78 | 7.11 | 3.5 | 5.42
AUUACCCUAGUCAUCGACUGA [Fam2.1 aminoacylation ribozyme variant] | 0.453 | 0.889 | 0.597 | 0.431 | 0.84 | 0.5
